The results in this text go back to paper PMC4793043.

Amino acid sequences for entries named in this document (tags omitted).
UniProt P17844: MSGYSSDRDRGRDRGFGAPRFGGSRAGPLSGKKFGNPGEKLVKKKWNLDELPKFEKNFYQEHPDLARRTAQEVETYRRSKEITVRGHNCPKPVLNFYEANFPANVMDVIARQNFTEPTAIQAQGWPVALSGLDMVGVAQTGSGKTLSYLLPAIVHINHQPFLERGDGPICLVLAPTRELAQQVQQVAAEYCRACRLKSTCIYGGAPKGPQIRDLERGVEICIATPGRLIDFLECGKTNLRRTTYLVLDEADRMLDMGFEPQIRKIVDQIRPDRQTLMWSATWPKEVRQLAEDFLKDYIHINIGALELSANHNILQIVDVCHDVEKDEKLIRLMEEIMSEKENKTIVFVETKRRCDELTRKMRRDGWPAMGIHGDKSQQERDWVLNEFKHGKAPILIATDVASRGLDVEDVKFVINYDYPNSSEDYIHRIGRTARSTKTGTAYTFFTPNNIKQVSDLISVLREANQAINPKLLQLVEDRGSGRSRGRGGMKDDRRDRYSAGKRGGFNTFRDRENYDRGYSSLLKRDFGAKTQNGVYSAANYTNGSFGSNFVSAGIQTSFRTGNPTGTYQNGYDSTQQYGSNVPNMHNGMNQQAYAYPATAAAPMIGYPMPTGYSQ

For the assay, the target named is HA-TLX (stable HeLa cell line) (UniProt Q64104). The experiment in a line: affinity purification with mass spectrometry; nuclear extracts of stable HeLa cells expressing HA or HA-TLX, pre-cleared, incubated with HA beads at 4 °C overnight; gel bands analysed by LC-MS/MS.

No constants are given. Whether binding was seen depends on the method and setting. In cells and extracts the contact can be indirect. Here binding means that the protein was enriched with, or labelled near, the bait; the list need not be complete.

As for “RNA helicase p68 (DDX5), endogenous in HeLa (from UniProt P17844 1-614)”, the binding result is on record as “binds”.
